Laboratory results: publication PMC9226014

Chains of the proteins cited; added tags and fusions are not shown. Lines headed by an entry give the natural chain unless they say otherwise; changes in a name come on top.
UniProt Q9Y572: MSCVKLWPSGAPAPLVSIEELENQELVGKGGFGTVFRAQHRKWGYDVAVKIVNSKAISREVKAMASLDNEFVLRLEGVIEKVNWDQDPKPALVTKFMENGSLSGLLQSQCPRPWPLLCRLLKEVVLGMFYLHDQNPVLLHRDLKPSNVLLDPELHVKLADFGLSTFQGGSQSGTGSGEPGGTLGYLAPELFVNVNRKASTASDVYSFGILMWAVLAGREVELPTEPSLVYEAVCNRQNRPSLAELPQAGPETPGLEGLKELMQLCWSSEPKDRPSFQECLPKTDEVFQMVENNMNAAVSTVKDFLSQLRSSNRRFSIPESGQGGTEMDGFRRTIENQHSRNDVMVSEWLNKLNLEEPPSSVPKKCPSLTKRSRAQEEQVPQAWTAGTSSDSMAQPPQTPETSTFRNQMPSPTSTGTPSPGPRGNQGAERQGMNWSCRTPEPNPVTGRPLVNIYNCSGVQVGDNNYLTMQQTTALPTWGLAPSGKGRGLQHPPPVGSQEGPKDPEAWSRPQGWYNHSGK
UniProt Q13158: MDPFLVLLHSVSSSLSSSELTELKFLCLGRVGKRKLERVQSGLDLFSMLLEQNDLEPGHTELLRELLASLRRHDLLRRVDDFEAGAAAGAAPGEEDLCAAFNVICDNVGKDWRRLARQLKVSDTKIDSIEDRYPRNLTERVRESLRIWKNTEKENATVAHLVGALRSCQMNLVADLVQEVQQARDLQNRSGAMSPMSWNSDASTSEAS
UniProt Q13546: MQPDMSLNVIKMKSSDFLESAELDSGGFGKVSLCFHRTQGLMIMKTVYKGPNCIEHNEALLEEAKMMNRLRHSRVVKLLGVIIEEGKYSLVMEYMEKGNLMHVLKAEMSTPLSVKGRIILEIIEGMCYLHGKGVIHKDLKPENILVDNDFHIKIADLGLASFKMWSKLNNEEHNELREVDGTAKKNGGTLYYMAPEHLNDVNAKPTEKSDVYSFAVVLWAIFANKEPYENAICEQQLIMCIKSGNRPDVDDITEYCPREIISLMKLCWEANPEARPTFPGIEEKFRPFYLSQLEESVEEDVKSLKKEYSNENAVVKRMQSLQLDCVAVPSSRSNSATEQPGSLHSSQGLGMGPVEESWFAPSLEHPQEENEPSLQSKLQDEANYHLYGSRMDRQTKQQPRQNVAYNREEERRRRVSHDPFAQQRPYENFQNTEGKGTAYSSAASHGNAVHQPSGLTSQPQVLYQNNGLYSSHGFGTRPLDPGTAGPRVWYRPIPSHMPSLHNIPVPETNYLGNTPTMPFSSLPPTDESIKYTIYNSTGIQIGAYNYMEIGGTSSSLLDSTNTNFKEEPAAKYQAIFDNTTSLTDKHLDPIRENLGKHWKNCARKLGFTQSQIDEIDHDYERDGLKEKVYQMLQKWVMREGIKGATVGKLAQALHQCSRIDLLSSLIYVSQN
UniProt Q9Y6K9: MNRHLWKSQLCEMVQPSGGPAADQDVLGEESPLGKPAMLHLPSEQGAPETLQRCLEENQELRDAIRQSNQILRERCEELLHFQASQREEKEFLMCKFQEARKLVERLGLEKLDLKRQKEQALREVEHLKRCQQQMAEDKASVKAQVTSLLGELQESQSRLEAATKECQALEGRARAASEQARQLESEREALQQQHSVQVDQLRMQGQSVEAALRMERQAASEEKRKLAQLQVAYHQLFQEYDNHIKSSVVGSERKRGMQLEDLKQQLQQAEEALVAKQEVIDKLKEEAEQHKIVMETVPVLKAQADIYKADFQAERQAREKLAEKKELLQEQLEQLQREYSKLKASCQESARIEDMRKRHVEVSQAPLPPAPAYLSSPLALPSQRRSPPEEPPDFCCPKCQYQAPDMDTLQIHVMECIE

B1: CEMIP (protein, UniProt Q8WUJ3 31-1361)
chain: TVAAGCPDQSPELQPWNPGHDQDHHVHIGQGKTLLLTSSATVYSIHISEGGKLVIKDHDEPIVLRTRHILIDNGGELHAGSALCPFQGNFTIILYGRADEGIQPDPYYGLKYIGVGKGGALELHGQKKLSWTFLNKTLHPGGMAEGGYFFERSWGHRGVIVHVIDPKSGTVIHSDRFDTYRSKKESERLVQYLNAVPDGRILSVAVNDEGSRNLDDMARKAMTKLGSKHFLHLGFRHPWSFLTVKGNPSSSVEDHIEYHGHRGSAAARVFKLFQTEHGEYFNVSLSSEWVQDVEWTEWFDHDKVSQTKGGEKISDLWKAHPGKICNRPIDIQATTMDGVNLSTEVVYKKGQDYRFACYDRGRACRSYRVRFLCGKPVRPKLTVTIDTNVNSTILNLEDNVQSWKPGDTLVIASTDYSMYQAEEFQVLPCRSCAPNQVKVAGKPMYLHIGEEIDGVDMRAEVGLLSRNIIVMGEMEDKCYPYRNHICNFFDFDTFGGHIKFALGFKAAHLEGTELKHMGQQLVGQYPIHFHLAGDVDERGGYDPPTYIRDLSIHHTFSRCVTVHGSNGLLIKDVVGYNSLGHCFFTEDGPEERNTFDHCLGLLVKSGTLLPSDRDSKMCKMITEDSYPGYIPKPRQDCNAVSTFWMANPNNNLINCAAAGSEETGFWFIFHHVPTGPSVGMYSPGYSEHIPLGKFYNNRAHSNYRAGMIIDNGVKTTEASAKDKRPFLSIISARYSPHQDADPLKPREPAIIRHFIAYKNQDHGAWLRGGDVWLDSCRFADNGIGLTLASGGTFPYDDGSKQEIKNSLFVGESGNVGTEMMDNRIWGPGGLDHSGRTLPIGQNFPIRGIQLYDGPINIQNCTFRKFVALEGRHTSALAFRLNNAWQSCPHNNVTGIAFEDVPITSRVFFGEPGPWFNQLDMDGDKTSVFHDVDGSVSEYPGSYLTKNDNWLVRHPDCINVPDWRGAICSGCYAQMYIQAYKTSNLRMKIIKNDFPSHPLYLEGALTRSTHYQQYQPVVTLQKGYTIHWDQTAPAELAIWLINFNKGDWIRVGLCYPRGTTFSILSDVHNRLLKQTSKTGVFVRTLQMDKVEQSYPGRSHYYWDEDSGLLFLKLKAQNEREKFAFCSMKGCERIKIKALIPKNAGVSDCTATAYPKFTERAVVDVPMPKKLFGSQLKTKDHFLEVKMESSKQHFFHLWNDFAYIEVDGKKYPSSEDGIQVVVIDGNQGRVVSHTSFRNSILQGIPWQLFNYVATIPDNSIVLMASKGRYVSRGPWTRVLEKLGADRGLKLKEQMAFVGFKGSFRPIWVTLDTEDHKAKIFQVVPIPVVKKKKL
B2: ABCD3 (protein, UniProt P28288 1-659)
chain: MAAFSKYLTARNSSLAGAAFLLLCLLHKRRRALGLHGKKSGKPPLQNNEKEGKKERAVVDKVFFSRLIQILKIMVPRTFCKETGYLVLIAVMLVSRTYCDVWMIQNGTLIESGIIGRSRKDFKRYLLNFIAAMPLISLVNNFLKYGLNELKLCFRVRLTKYLYEEYLQAFTYYKMGNLDNRIANPDQLLTQDVEKFCNSVVDLYSNLSKPFLDIVLYIFKLTSAIGAQGPASMMAYLVVSGLFLTRLRRPIGKMTITEQKYEGEYRYVNSRLITNSEEIAFYNGNKREKQTVHSVFRKLVEHLHNFILFRFSMGFIDSIIAKYLATVVGYLVVSRPFLDLSHPRHLKSTHSELLEDYYQSGRMLLRMSQALGRIVLAGREMTRLAGFTARITELMQVLKDLNHGKYERTMVSQQEKGIEGVQVIPLIPGAGEIIIADNIIKFDHVPLATPNGDVLIRDLNFEVRSGANVLICGPNGCGKSSLFRVLGELWPLFGGRLTKPERGKLFYVPQRPYMTLGTLRDQVIYPDGREDQKRKGISDLVLKEYLDNVQLGHILEREGGWDSVQDWMDVLSGGEKQRMAMARLFYHKPQFAILDECTSAVSVDVEGYIYSHCRKVGITLFTVSHRKSLWKHHEYYLHMDGRGNYEFKQITEDTVEFGS

Columns and labels:
[1] = molecular target: kinase-inactive D142N mutant human RIPK3 with an N-terminal FLAG tag (human) (UniProt Q9Y572); assay: affinity purification with mass spectrometry; FLAG-RIPK3 (wild type or D142N) precipitated on anti-FLAG M2 Affinity Gel from lysates of RIPK3-/- HT29 cells induced with 500 ng/mL doxycycline overnight, without or with TSI (TNF, Smac mimetic Compound A, IDN-6556) for 3 h; lysis buffer 50 mM Tris-HCl pH 7.4, 1% Triton X-100, 150 mM NaCl, 1 mM EDTA; 1 h at 4 C; eluted with FLAG peptide; five replicates
[2] = molecular target: wild-type human RIPK3 with an N-terminal FLAG tag (human) (UniProt Q9Y572); assay: as above
[3] = molecular target: wild-type human RIPK3 with an N-terminal FLAG tag (human) (UniProt Q9Y572); assay: condition: only at steady state (doxycycline only, without TSI); affinity purification with mass spectrometry; as a1, at steady state only: cells induced with doxycycline, not treated with TSI
[4] = molecular target: kinase-inactive D142N mutant human RIPK3 with an N-terminal FLAG tag (human) (UniProt Q9Y572); assay: affinity purification with mass spectrometry; as a1, at steady state only: cells induced with doxycycline, not treated with TSI
[5] = molecular target: wild-type human RIPK3 with an N-terminal FLAG tag (human) (UniProt Q9Y572); assay: affinity purification with mass spectrometry; FLAG-RIPK3 (wild type or D142N) precipitated on anti-FLAG M2 Affinity Gel from lysates of RIPK3-/- HT29 cells induced with 500 ng/mL doxycycline overnight, without or with TSI (TNF, Smac mimetic Compound A, IDN-6556) for 3 h; lysis buffer 50 mM Tris-HCl pH 7.4, 1% Triton X-100, 150 mM NaCl, 1 mM EDTA; 1 h at 4 C; eluted with FLAG peptide; five replicates; remark: listed apart in the source

Molecule | binding [1] | binding [2] | binding [3] | binding [4] | binding [5]
FADD (from UniProt Q13158 1-208) | binds | binds |  |  | 
receptor-interacting serine/threonine protein kinase 1 (RIPK1) (from UniProt Q13546 1-671) | binds | binds | no binding | binds | 
IKBKG (NEMO) (from UniProt Q9Y6K9 1-419) | binds | binds |  |  | 
B1 |  |  |  |  | binds
B2 |  |  |  |  | binds

These are yes or no findings as the source states them, for the method shown. In cells and extracts the contact can be indirect. These calls come from enrichment with a bait or labelling near it, and not all partners need be listed. For some of these results: A no says only that the protein was not detected with the bait.
